# Results published in the supplement of paper PMC10331698.
# ± gives the standard deviation of the averaged measurements. Most entries show no effect beyond the scatter of the controls.
# How the values were obtained:
# Experiment in all cases: level (log10 ratio to DMSO vehicle control); higher = higher biomarker level / cell amount than vehicle control
# [1] = compound: O=P(O)(O)CCC(F)(F)C(F)(F)C(F)(F)C(F)(F)C(F)(F)C(F)(F)C(F)(F)C(F)(F)F [((Perfluorooctyl)ethyl)phosphonic acid]; conditions: 2200 nM; in DMSO
# Experimental: (§1)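 BioMAP Diversity Plus panel of 12 human primary cell co-culture systems (3C, 4H, LPS, SAg, BT, BF4T, BE3C, CASM3C, HDF3CGF, KF3CT, MyoF, Mphg). Compounds were added 1 h before stimulation and left for 24 h (MyoF 48 h; BT 72 h for soluble read-outs or 6 d for IgG). Biomarkers were read by ELISA, cytotoxicity by SRB, PBMC viability and proliferation by Alamar Blue. Each well value was divided by the mean of 8 DMSO control wells on the same plate and log10 transformed; duplicate blinded samples were tested at 4 concentrations.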
# Perfluoropropanoic acid = compound: O=C(O)C(F)(F)C(F)(F)F [Perfluoropropanoic acid]; conditions: 2200 nM; in DMSO
# Experimental: as §1
# [2] = compound: FC(F)(F)C(F)(F)C(F)(F)C(F)(F)C(F)(F)C(F)(F)C(F)(F)CCI [1-Iodo-1H,1H,2H,2H-perfluorononane]; conditions: in DMSO
# Experimental: as §1
# [3] = compound: FC(F)(F)C(F)(F)C(F)(F)C(F)(F)C(F)(F)C(F)(F)C(F)(F)I [1-Iodopentadecafluoroheptane]; conditions: in DMSO
# Experimental: as §1
# [4] = compound: O=C(O)C(F)(F)OC(F)(F)C(F)(F)OC(F)(F)C(F)(F)C(F)(F)C(F)(F)F [Perfluoro-3,6-dioxadecanoic acid]; conditions: 2200 nM; in DMSO
# Experimental: as §1
# [5] = compound: O=C(O)C(F)(F)C(F)(F)C(F)(F)C(F)(F)C(F)(F)C(F)(F)C(F)(F)C(F)F [9-H-Perfluorononanoic acid]; conditions: 2200 nM; in DMSO
# Experimental: as §1
# Perfluorobutanoic acid = compound: O=C(O)C(F)(F)C(F)(F)C(F)(F)F [Perfluorobutanoic acid]; conditions: 2200 nM; in DMSO
# Experimental: as §1
# Perfluorooctanamide = compound: NC(=O)C(F)(F)C(F)(F)C(F)(F)C(F)(F)C(F)(F)C(F)(F)C(F)(F)F [Perfluorooctanamide]; conditions: 2200 nM; in DMSO
# Experimental: as §1
# [6] = compound: OCC(F)(F)C(F)(F)C(F)(F)C(F)(F)C(F)(F)C(F)(F)C(F)(F)C(F)(F)C(F)(F)C(F)(F)C(F)(F)F [11:1 Fluorotelomer alcohol]; conditions: in DMSO
# Experimental: as §1
# Perfluoroundecanoic acid = compound: O=C(O)C(F)(F)C(F)(F)C(F)(F)C(F)(F)C(F)(F)C(F)(F)C(F)(F)C(F)(F)C(F)(F)C(F)(F)F [Perfluoroundecanoic acid]; conditions: in DMSO
# Experimental: as §1
# [7] = compound: OCCC(F)(F)C(F)(F)C(F)(F)C(F)(F)C(F)(F)C(F)(F)C(F)(F)C(F)(F)F [8:2 Fluorotelomer alcohol]; conditions: 2200 nM; in DMSO
# Experimental: as §1
# [8] = compound: O=C(O)C=CC(F)(C(F)(F)F)C(F)(F)F [3-(Perfluoroisopropyl)-2-propenoic acid]; conditions: in DMSO
# Experimental: as §1
# [9] = compound: FC(F)C(F)(F)COCC1CO1 [((2,2,3,3-Tetrafluoropropoxy)methyl)oxirane]; conditions: 2200 nM; in DMSO
# Experimental: as §1
# [10] = compound: O=C(O)C(F)(F)OC(F)(F)C(F)(F)OC(F)(F)C(=O)O [Perfluoro-3,6-dioxaoctane-1,8-dioic acid]; conditions: 2200 nM; in DMSO
# Experimental: as §1
# [11] = compound: C=C(C)C(=O)OCC(F)(F)C(F)(F)C(F)(F)F [2,2,3,3,4,4,4-Heptafluorobutyl methacrylate]; conditions: 2200 nM; in DMSO
# Experimental: as §1
# [12] = compound: C=CC(=O)OCC(F)(F)C(F)(F)C(F)(F)C(F)(F)COC(=O)C=C [1H,1H,6H,6H-Perfluorohexane-1,6-diol diacrylate]; conditions: 2200 nM; in DMSO
# Experimental: as §1
# [13] = compound: O=C(O)C(F)(F)C(F)(F)OC(F)(F)F [Perfluoro-3-methoxypropanoic acid]; conditions: 2200 nM; in DMSO
# Experimental: as §1
# [14] = compound: O=S(=O)(Cl)C(F)(F)C(F)(F)C(F)(F)C(F)(F)C(F)(F)C(F)(F)C(F)(F)C(F)(F)F [Perfluoro-1-octanesulfonyl chloride]; conditions: 2200 nM; in DMSO
# Experimental: as §1
Test System,level (log10) [1],level (log10) (Perfluoropropanoic acid),level (log10) ([2]; 740 nM),level (log10) ([2]; 2200 nM),level (log10) ([2]; 6700 nM),level (log10) ([2]; 20000 nM),level (log10) ([3]; 740 nM),level (log10) ([3]; 2200 nM),level (log10) ([3]; 6700 nM),level (log10) ([3]; 20000 nM),level (log10) [4],level (log10) [5],level (log10) (Perfluorobutanoic acid),level (log10) (Perfluorooctanamide),level (log10) ([6]; 370 nM),level (log10) ([6]; 1100 nM),level (log10) ([6]; 3300 nM),level (log10) ([6]; 10000 nM),level (log10) (Perfluoroundecanoic acid; 740 nM),level (log10) (Perfluoroundecanoic acid; 2200 nM),level (log10) [7],level (log10) ([8]; 2200 nM),level (log10) ([8]; 6700 nM),level (log10) ([8]; 20000 nM),level (log10) ([8]; 60000 nM),level (log10) [9],level (log10) [10],level (log10) [11],level (log10) [12],level (log10) [13],level (log10) [14]
MyoF:Decorin,0.0305 ± 0.052,0.0185 ± 0.063,0.01 ± 0.033,0.0185 ± 0.0078,0.014 ± 0.0042,0.038 ± 0.05,0.0435 ± 0.0035,-0.0055 ± 0.015,0.0365 ± 0.049,0.0215 ± 0.029,0.0065 ± 0.015,0.019 ± 0.024,-0.0235 ± 0.0021,0.009 ± 0.041,0.0125 ± 0.042,0.0065 ± 0.028,0.013 ± 0.021,0.0255 ± 0.0021,0.0005 ± 0.037,-0.0075 ± 0.053,-0.0035 ± 0.035,0.0065 ± 0.036,-0.0045 ± 0.021,0.004 ± 0.0014,0.0225 ± 0.029,0 ± 0.018,0.009 ± 0.035,0.0145 ± 0.015,-0.0115 ± 0.0021,0.01 ± 0.04,-0.0165 ± 0.0064
MyoF:MMP-1,0.0095 ± 0.066,-0.0155 ± 0.0035,-0.015 ± 0.0099,-0.0135 ± 0.00071,-0.012 ± 0.013,-0.0145 ± 0.025,0.0105 ± 0.022,-0.0025 ± 0.0021,0.145 ± 0.045,0.547 ± 0.018,0.002 ± 0.027,-0.0265 ± 0.0035,0.034 ± 0.033,-0.013 ± 0.048,0 ± 0.071,-0.027 ± 0.0042,-0.0445 ± 0.0021,0.004 ± 0.052,-0.007 ± 0.018,-0.066 ± 0.061,0.0125 ± 0.091,0.0195 ± 0.066,-0.0205 ± 0.021,-0.031 ± 0.0014,0.006 ± 0.068,0.0035 ± 0.026,0.022 ± 0.052,0.045 ± 0.033,0.017 ± 0.034,0.026 ± 0.085,-0.0015 ± 0.076
MyoF:PAI-I,-0.0055 ± 0.005,-0.008 ± 0.0057,0.0005 ± 0.023,0.0105 ± 0.013,-0.002 ± 0.02,-0.0025 ± 0.0035,-0.003 ± 0.025,-0.013 ± 0.024,-0.013 ± 0.016,-0.075,0.001 ± 0.0071,0.0095 ± 0.016,-0.002 ± 0.0099,-0.009 ± 0.0057,0.005 ± 0.0014,0.009 ± 0.0042,0.014 ± 0.013,0.0205 ± 0.0064,0.015 ± 0.0099,0.0095 ± 0.0035,0.0045 ± 0.021,-0.0025 ± 0.025,0.0125 ± 0.0078,0.007 ± 0.0099,0.009 ± 0.0014,-0.01 ± 0.0028,0.0025 ± 0.03,-0.0075 ± 0.012,-0.0135 ± 0.011,0.0045 ± 0.016,-0.023 ± 0.02
MyoF:SRB,0.006 ± 0.021,0.0025 ± 0.0078,0.001 ± 0.0042,-0.0005 ± 0.0064,0.016 ± 0.0014,0.0325 ± 0.0021,-0.004 ± 0.0057,0.0015 ± 0.0035,-0.0135 ± 0.00071,-0.131 ± 0.012,-0.0025 ± 0.0035,0.0095 ± 0.005,0.0065 ± 0.00071,0.001 ± 0.011,-0.003 ± 0.011,0 ± 0.0042,-0.0015 ± 0.012,0.0015 ± 0.016,0.0235 ± 0.00071,0.0245 ± 0.015,0.0065 ± 0.0092,0.005 ± 0.02,-0.005 ± 0.0014,-0.0085 ± 0.0035,0 ± 0.018,-0.0025 ± 0.005,-0.007 ± 0.0057,-0.027 ± 0.041,0.011 ± 0.0057,0.003 ± 0.011,-0.0005 ± 0.019
MyoF:TIMP-1,0.0545 ± 0.026,0.0745 ± 0.073,-0.0185 ± 0.026,0.008 ± 0.048,-0.002 ± 0.054,0.0165 ± 0.042,-0.0155 ± 0.021,0.008 ± 0.0014,0.049 ± 0.0057,-0.0605 ± 0.0092,0.0335 ± 0.0021,-0.0185 ± 0.0035,-0.0385 ± 0.059,-0.006 ± 0.031,0.006 ± 0.033,0.0095 ± 0.05,0.015 ± 0.048,0.011 ± 0.02,-0.067 ± 0.096,-0.057 ± 0.052,-0.006 ± 0.021,0.0135 ± 0.035,-0.0285 ± 0.00071,-0.0085 ± 0.013,0.0535 ± 0.037,0.002 ± 0.021,0.0005 ± 0.063,0.0295 ± 0.016,0.0015 ± 0.005,0.0025 ± 0.026,0.003 ± 0.05
MyoF:alpha-SM Actin,0.006 ± 0.033,-0.0275 ± 0.04,-0.001 ± 0.0028,0.0055 ± 0.0078,-0.016 ± 0.02,-0.0435 ± 0.0035,0.0205 ± 0.0021,-0.036 ± 0.0099,-0.115 ± 0.016,-0.291 ± 0.045,-0.051 ± 0.027,0.001 ± 0.0042,-0.0105 ± 0.037,-0.0015 ± 0.0035,0.0125 ± 0.056,-0.0025 ± 0.015,-0.0195 ± 0.03,0.0045 ± 0.018,0.009 ± 0.0099,0.012 ± 0.0085,0.006 ± 0.068,0.0245 ± 0.04,0.0065 ± 0.021,0 ± 0.054,0.0245 ± 0.011,-0.035 ± 0.028,0.018 ± 0.04,0.002 ± 0.086,-0.0285 ± 0.00071,0.013 ± 0.052,0.028 ± 0.016
MyoF:bFGF,-0.008 ± 0.0057,-0.0135 ± 0.012,0.0015 ± 0.012,0.005 ± 0.0099,0.01 ± 0.0014,0.021 ± 0.017,0.0145 ± 0.0092,0.006 ± 0.0028,0.0165 ± 0.016,-0.0075 ± 0.015,0.0095 ± 0.0078,-0.0035 ± 0.016,0.0045 ± 0.018,0.0015 ± 0.00071,-0.005 ± 0.0014,0.002 ± 0.0071,0.008 ± 0.014,0.004 ± 0.021,0.0035 ± 0.013,0.005 ± 0.034,-0.0025 ± 0.016,0.024 ± 0.033,0 ± 0.0028,0.006 ± 0.027,0.006 ± 0.017,0.0175 ± 0.013,0.001 ± 0.03,-0.0075 ± 0.0078,-0.008 ± 0.0028,0.012 ± 0.027,-0.0195 ± 0.005
